In patent US20220195021A1 (ANWITA BIOSCIENCES, published 2022) one finds binding data, which are given here for 4 molecules.

The chains behind the UniProt entries cited, without tags or fusion partners. Residues count along the entry.
UniProt A2V9Z4, residues 25-608: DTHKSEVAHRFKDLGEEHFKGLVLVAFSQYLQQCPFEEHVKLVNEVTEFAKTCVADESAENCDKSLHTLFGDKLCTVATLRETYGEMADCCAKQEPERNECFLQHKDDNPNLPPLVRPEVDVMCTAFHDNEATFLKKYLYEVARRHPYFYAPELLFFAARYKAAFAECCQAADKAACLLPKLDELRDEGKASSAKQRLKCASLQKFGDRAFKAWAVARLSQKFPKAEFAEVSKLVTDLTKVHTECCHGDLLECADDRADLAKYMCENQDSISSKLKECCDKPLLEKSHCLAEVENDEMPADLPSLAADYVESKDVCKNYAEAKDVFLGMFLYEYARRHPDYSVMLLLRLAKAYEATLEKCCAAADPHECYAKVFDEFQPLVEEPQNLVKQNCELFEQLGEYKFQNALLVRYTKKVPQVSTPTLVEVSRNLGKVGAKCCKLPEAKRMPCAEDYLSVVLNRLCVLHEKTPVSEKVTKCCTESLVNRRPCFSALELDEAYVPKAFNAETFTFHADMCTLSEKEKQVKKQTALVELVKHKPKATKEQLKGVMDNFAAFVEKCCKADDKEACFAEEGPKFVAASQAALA
UniProt P07724, residues 25-608: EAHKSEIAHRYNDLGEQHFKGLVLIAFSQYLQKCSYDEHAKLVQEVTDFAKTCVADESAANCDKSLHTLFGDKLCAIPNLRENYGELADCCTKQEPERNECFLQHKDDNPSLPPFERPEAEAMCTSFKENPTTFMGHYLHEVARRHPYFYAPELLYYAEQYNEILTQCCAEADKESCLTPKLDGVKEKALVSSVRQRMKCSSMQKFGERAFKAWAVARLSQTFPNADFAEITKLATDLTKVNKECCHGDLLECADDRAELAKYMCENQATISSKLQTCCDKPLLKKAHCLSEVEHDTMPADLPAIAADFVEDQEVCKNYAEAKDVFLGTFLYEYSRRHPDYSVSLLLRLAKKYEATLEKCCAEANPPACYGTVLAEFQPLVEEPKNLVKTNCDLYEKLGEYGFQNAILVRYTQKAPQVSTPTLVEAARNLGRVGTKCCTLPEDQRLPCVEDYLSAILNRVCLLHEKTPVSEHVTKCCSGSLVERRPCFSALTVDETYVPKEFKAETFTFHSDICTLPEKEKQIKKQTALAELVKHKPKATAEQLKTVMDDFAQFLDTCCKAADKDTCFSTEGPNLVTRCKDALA
UniProt P02768, residues 25-609: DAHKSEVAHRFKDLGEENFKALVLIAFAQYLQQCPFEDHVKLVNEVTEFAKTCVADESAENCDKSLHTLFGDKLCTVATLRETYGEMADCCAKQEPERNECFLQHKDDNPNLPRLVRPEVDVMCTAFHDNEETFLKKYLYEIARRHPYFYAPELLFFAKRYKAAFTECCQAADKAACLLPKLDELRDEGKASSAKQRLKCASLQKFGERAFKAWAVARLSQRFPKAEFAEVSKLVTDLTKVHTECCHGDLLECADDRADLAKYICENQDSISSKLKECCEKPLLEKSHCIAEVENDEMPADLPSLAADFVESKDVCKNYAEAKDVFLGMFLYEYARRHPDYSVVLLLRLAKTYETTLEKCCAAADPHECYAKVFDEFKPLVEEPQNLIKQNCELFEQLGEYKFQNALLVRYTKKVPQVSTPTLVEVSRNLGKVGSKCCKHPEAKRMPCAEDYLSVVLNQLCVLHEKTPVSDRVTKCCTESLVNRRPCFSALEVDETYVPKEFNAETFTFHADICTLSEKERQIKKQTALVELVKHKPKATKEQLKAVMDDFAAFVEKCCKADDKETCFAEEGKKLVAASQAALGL

Test [1] addresses monkey serum albumin (monkey (cynomolgus monkey in paragraph 472)) (UniProt A2V9Z4). Kind of test: BLI (OCTET RED96), VHH-IgG1-Fc on protein A biosensor, pH 5.5.
For test [2] the target is unchanged. Kind of test: BLI (OCTET RED96), VHH-IgG1-Fc on protein A biosensor, pH 7.4.
In another test the target is T1, mouse serum albumin (mouse, UniProt P07724 25-608).
T1 construct: also called MuSA
The description is as above. As to the method:
(§1) The VHH anti-albumin antibodies were evaluated for their ability to interact with human, monkey, and mouse serum albumins at different pH values, e.g., pH 7.4 or pH 5.5 to simulate the pH of an acidified endosome. Briefly, a VHH anti-albumin antibody was fused onto a human IgG1-Fc. The expressed protein was then loaded onto a protein A biosensor (OCTET® RED96). The biosensor was in turn dipped into a solution containing a human, monkey, or mouse serum at three or more different concentrations, e.g., 50, 100, or 200 nM, or 100, 200, or 400 nM. Primary experimental data was analyzed with global fitting to determine a dissociation constant (KD). The results are summarized in Table 7 (pH 5.5) and Table 8 (pH 7.4), wherein A represents a value no greater than 10 nM, B represents a value greater than 10 nM but no greater than 100 nM, and C represents a value greater than 100 nM but no greater than 500 nM.

In a further test the target is T2, human serum albumin (human, UniProt P02768 25-609).
T2 construct: The immunogen was rice-expressed HSA (Sigma A9731); also called HSA
The description is as above. On the procedure:
as §1

Numbering of substitutions follows the chain as printed. No constants are given. Whether binding was seen depends on the method and setting. Some results given as binding are weak or reduced against the parent protein; the word gives no strength. Sequences can lack the tags named with a protein.

B1: anti-HSA VHH antibody A8 fused onto a human IgG1-Fc (Fc fusion)
chain: QVQLVESGGGLVQPGGSLRLSCAASGSTWSINTLAWYRQAPGKQRDLVARISSGGSTHYADSVKGRFTVSRDNAENTLVLQMNSLKPEDTAVYYCYAQSTWYPPSWGQGTQVTVSS
notes: Llama VHH; also called Ab A8; not shown: human IgG1 Fc
For B1, the binding result in test [1] is given as “binds”.

B2: humanized anti-HSA VHH antibody A19 fused onto a human IgG1-Fc (Fc fusion)
chain: B1 chain with Q1E, H58Y, V69I, A74S, E75K, V79Y, K86R, P87A, Q111L
notes: also called Ab A19; anti-HSA A19; not shown: human IgG1 Fc
Consider B2, for which the binding entry (in test [2]; with mouse serum albumin; with human serum albumin) was “binds” each time.

B3: humanized anti-HSA VHH antibody A20 fused onto a human IgG1-Fc (Fc fusion)
chain: QVQLVESGGGVVQPGGSLRLSCAASGFAFRGFGMSWVRQAPGKGLEWVSSINNGGSDTYYADSVKGRFTISRDNSKNTLYLQMNSLRAEDTAVYYCAIGGPGASPSGQGTQVTVSS
notes: also called Ab A20; anti-HSA A20; not shown: human IgG1 Fc
In the case of B3, the binding result in test [1] is given as “binds”.

B4: anti-HSA VHH antibody A10 fused onto a human IgG1-Fc (Fc fusion)
chain: QVQLVESGGGLVQAGGSLRLSCLASGGTFSSYAMGWFRQAPGKEREFVAAISWKSSTYYTDSVKGRFTISRDNAKNTVYLQMNSLTPEDTAVYYCAADPTGSYDQPWYDYWGQGTQVTVSS
notes: Llama VHH; also called Ab A10; not shown: human IgG1 Fc
Turning to B4, the binding entry in test [1] is “binds”.
